PubChem BioAssay AID1259405 | NCATS – 2018

Assay: 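Knock-downs that lift recombinant protein yield in hamster ovary cells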 (primary screen)
System: Chinese hamster CHO-K1 ovary cells with stable secreted eGFP expression
Reagents: single siRNA against mouse genes, 0.8 pmol siRNA per well (2 µl of 400 nM stock)
Time to read-out: 3 days
Detection: 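Percent of the per-plate non-targeting control median for intracellular GFP per well by laser scanning cytometry and for cell viability by ATP luminescence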
Direction: GFP, % of control: higher = more GFP per well, higher productivity; viability (ATP), % of control: higher = more viable cells (more ATP)
Call rule: 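Called active when intracellular GFP, relative to negative control, is at or above 120%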
Shown is one part, drawn at random, of about 50,000 reagents tested. Of all reagents, about 4,000 (8%) got an active call. 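Mouse siRNA library applied to hamster cells; one well for each siRNA.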 Entries without a mark were called inactive. The numbers tell different reagents against one gene apart.

gene,reagent,"GFP, % of control","viability (ATP), % of control"
Csprs,1,128 (active),81.5
Csprs,2,45.4,40.3
Csprs,3,105,84.1
Mrps18a,1,127 (active),89.2
Mrps18a,2,95.2,84.6
Mrps18a,3,90.2,57.2
Hoxc6,1,97.5,75.1
Hoxc6,2,82.2,82.4
Hoxc6,3,81.6,98.8
Pibf1,1,50.5,79.5
Pibf1,2,66.2,76.9
Pibf1,3,51.7,60.5
Ccl11,1,91.8,111
Ccl11,2,80.8,106
Tjap1,1,67.2,48.3
Tjap1,2,101,99.7
Tjap1,3,87.7,78.6
Or2a25,1,81.9,56.5
Or2a25,2,69.5,73.3
Or2a25,3,62.3,47.9
Clec4f,1,55.9,51.1
Clec4f,2,81.2,44.6
Clec4f,3,94.5,73.7
Tgfb2,1,94.1,98.9
Tgfb2,2,50.8,59.8
Tgfb2,3,77.8,71.4
Lin54,1,58.9,56.9
Lin54,2,85.1,111
Lin54,3,82.3,92.4
Cdyl2,1,45.7,69.9
Cdyl2,2,69.7,88.2
Cdyl2,3,57.5,80.2
Evi2b,1,56,62.2
Evi2b,2,67.9,80.8
Evi2b,3,78,83
Mutyh,1,124 (active),116
Mutyh,2,74.1,76.8
Mutyh,3,98.3,56.1
Mark2,1,73.8,91.5
Mark2,2,116,76.5
Mark2,3,69.6,93.6
Naa20,1,76.1,82.5
Naa20,2,34.3,67.8
Naa20,3,92.7,104
Tbx6,1,91.8,90.9
Tbx6,2,53,59.9
Tbx6,3,45.7,68.8
Nisch,1,117,68.6
Nisch,2,79.6,64.6
Nisch,3,85.4,90
Sil1,1,118,66.9
Sil1,2,41.5,29.7
Sil1,3,62.1,80.8
Sord,1,54,60.1
Sord,2,35.4,58.2
Sord,3,72.1,74.6
Rps15a,1,81.2,80
Rps15a,2,94,84.2
Rps15a,3,95.1,93.7
Btg3,1,51.6,74.4
Btg3,2,99.7,89.3
Btg3,3,107,141
Loxl3,1,50.7,54.2
Loxl3,2,42.5,39.3
Loxl3,3,62.1,67.3
Marchf3,1,60.3,78
Marchf3,2,133 (active),84.5
Marchf3,3,123 (active),105
Zkscan1,1,74.1,102
Zkscan1,2,48.6,84.9
Zkscan1,3,72.2,99.3
Stard3,1,80.1,83.5
Stard3,2,73.4,62.4
Stard3,3,67.4,66.5
Syap1,1,112,83.2
Syap1,2,104,111
Syap1,3,98.1,111
Pcdha12,1,88.1,73.7
Pcdha12,2,46.7,33.7
Pcdha12,3,105,88.5
Cd40lg,1,74.6,72.5
Cd40lg,2,63.9,45.5
Cd40lg,3,49.5,43.6
Tekt2,1,98.9,92.7
Tekt2,2,76.2,74.2

Called active, among the entries above:
gene,reagent,"GFP, % of control","viability (ATP), % of control"
Csprs,1,128 (active),81.5
Mrps18a,1,127 (active),89.2
Mutyh,1,124 (active),116
Marchf3,2,133 (active),84.5
Marchf3,3,123 (active),105
